Laboratory results taken from patent US4356165A (Burroughs Wellcome Co., priority 1980, dated 1982).

What follows are compounds tested on anticompound 2 sera, and anti-compound 3 sera (assay: RIA of bupropion using 125I-labeled bupropion competitors (sensitivity), anti-compound 2 sera and anti-compound 3 sera). Conditions: with anti-compound 2 sera or anti-compound 3 sera; FIG. 2.
Format: binding

Structure (SMILES) | RIA sensitivity relative to the compound 10 (3H bupropion) assay system
CC(NC(C)(C)C)C(=O)c1ccc(OCC(=O)NCCc2ccc(O)c([125I])c2)c(Cl)c1 (stereo not drawn) [Compound 7, α-t-Butylamino-3-chloro-4-carbomethoxypropiophenone-^125 I-tyramine amide] | sensitivity approximately equal to that obtained with the compound 10 system
CC(NC(C)(C)C)C(=O)c1ccc(O)c([125I])c1 (stereo not drawn) [Compound 9, ^125 I-α-t-Butylamino-3-iodo-4-hydroxypropiophenone] | approximately ten times more sensitive than the compound 10 (^3 H bupropion) assay system
CC(NC(C)(C)C)C(=O)c1ccc(CCCOC(=O)CCC(=O)NCCc2ccc(O)c([125I])c2)c(Cl)c1 (stereo not drawn) [Compound 8, α-t-Butylamino-3-chloro-4-γ-hydroxypyropylpropiophenone-hemisuccinate-^125 I-tyramine amide] | sensitivity approximately equal to that obtained with the compound 10 system
